Test results: the supplement of paper PMC10338343
± gives the standard deviation. Some of the results follow. Many entries were measured with a wide error.

What follows are sequences tested on EfPiwi piRISC loaded with L1MC piRNA (26 nt) (assay: pre-steady-state target cleavage rate (min^-1); guide: L1MC piRNA 5'p-UAACUAAAUACUAUGCAAGCUGUAGG; MIWI and MILI are mouse PIWI proteins and EfPiwi is from a freshwater sponge; tags in brackets are library labels; higher = faster piRNA-guided slicing of the target). Conditions: auxiliary factor: 500 nM Ephydatia muelleri Gtsf1.
Outline: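 A burst-and-steady-state fit was used to obtain the pre-steady-state cleavage rate. The input data were sequencing reads of uncleaved targets, normalised to depth and to weakly complementary targets, from a […] transcribed, DNA-blocked target RNA library mixed with 1 nM active affinity-purified piRISC holding one synthetic guide, with or without 500 nM GTSF1 partner protein, in HEPES–potassium acetate buffer at 33 °C for 0–8 or 0–960 min. Three trials were pooled and k3 was capped at 0.0001 min^-1.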

Sequence	pre-steady-state target cleavage rate
UCCUGGAUGUCGAACGUAUCUAUUUUCUUA	< 0.0001
UCCUGGAACAGCUUCGAUAGUAUUUAGUAA	0.00136 ± 0.0039
UCCUGGAUGUCGUAGCAUAGUAUUAAGUUA	0.000901 ± 0.0053
UCCUGGAUGUCGAACGAUAGUCAUUUAGUUA	< 0.0001
UCCUGGUACAGCUUCGAUAGUAUUUAGAAA	0.0034 ± 0.0036
UCCUGGAUGUCCUUGCAUACGUAUUUAGUUA	0.00141 ± 0.004
UCCUGGAUCACCUUGCAUAGUAUUUAGAAA	0.00171 ± 0.004
UCCUGGAUGUCCUUGCAUAGUUUAUAGUUA	0.000967 ± 0.0084
UCCUGGAUGUCGUUGCAUUCAAUUUAGUUA	0.000162 ± 0.023
UCCUGGAUCAGCUUGCAUAGUAUAAAGAAA	0.00121 ± 0.0029
UCCUGGAUGAGCUUCCAUUGUAUUUAGUUA	0.00132 ± 0.0031
UCCUGGAUGUCGUUGCAAAGUAUAUAGUUA	0.000301 ± 0.013
UCCUGGAUCAGCUUGCAAUCAUAAAUCAAA [g14:g22:cont:t1A]	0.000259 ± 0.015
UCCUGGAUGUCGAAGCAUAGUAUUUAGUUUA	0.002 ± 0.0055
UCCUGGUACAGCUUGCAUAGUCAUUUAGUUA	0.00084 ± 0.0053
UCCUGGUACAGCUUGCAUUCUAUUUAGUUA	0.000324 ± 0.022
UCCUGGAACAGCUUGCAUAGUAUAUAGAAA	0.00685 ± 0.0044

Sequence	pre-steady-state target cleavage rate
UCCUGCUACAGCUUGCAUAGAUUUUUCAAA	0.000801 ± 0.003
UCCUGGAUCAGCUUGCAUAGAUUUUAGUAA	0.000872 ± 0.0037
UCCUGGAUGUGGAAGCAUAGUAUUUAGUAA	0.00225 ± 0.0054
UCCUGGAUCUCCUUGCAUAGUAUUUACAAA	0.00164 ± 0.0047
UCCUGGAUGUGCUUCAUAGUAUUUAGUUA	0.00929 ± 0.0056
UCCUGGAUGUCGUUGCAUAGUCUUUAGUUA	0.00182 ± 0.003
UCCUGGAUGAGGUUGCAUAGUAUAUAGUUA	0.00167 ± 0.0043
UCCUGGAUGAGCUUCGUUAGUAUUUAGUAA	0.000158 ± 0.025
UCCUGGAUGUCCUUGGAUAGUUUUUAGUUA	0.00135 ± 0.0057
UCCUGGAUGUCGAACGUUAGUAUAAAGUUA	0.00026 ± 0.021
UCCUGGAUCAGCUUGCAUAGUAAAAAGUAA	0.00268 ± 0.0047
UCCUGGAUGUGCUUGCAUACAAUUUAGUUA	0.00179 ± 0.0069
UCCUGGAUGUCGAAGCAUAGUAUUUGGUUA	0.00039 ± 0.0089
UCCUGGAUGUCGAAGCAUAAGUAUUUAGUUA	0.000405 ± 0.0077
UCCUGGAUGAGCUUCCAAAGUAUUUAGUUA	0.00193 ± 0.0022
UCCUGGAUGUCGAUGCAUAGUUAAAUCAAA [g10:g17:cont:t1A]	0.000165 ± 0.015
UCCUGGAUGUCGUUGCUUAGUUUUUAGUUA	0.000177 ± 0.03

Copied from above for reference:
Sequence	pre-steady-state target cleavage rate
UCCUGGAUCUCCUUGCAUAGUAUUUACAAA	0.00164 ± 0.0047
UCCUGGAUGUGCUUCAUAGUAUUUAGUUA	0.00929 ± 0.0056
UCCUGGAUGUCGUUGCAUAGUCUUUAGUUA	0.00182 ± 0.003
